Results are given in words; binding and its absence hold for the method and conditions named. Binding seen in cells or lysates may run through a third protein. Some results given as binding are weak or reduced against the parent protein; the word gives no strength.
Key:
[1] = molecular target: dopamine D2 receptor (D2R), long isoform D2LR (human) (UniProt P14416); test: proximity ligation; in situ PLA on 4% PFA fixed, permeabilised HT22 cells 48 h after transient co-transfection; rabbit polyclonal NTS1R antibody and mouse D2R antibody; confocal microscopy; untransfected HT22 cells as controls
[2] = molecular target: 3xHA 5-HT2AR-Rluc8 (human) (UniProt P28223); test: FRET or BRET; BRET1 saturation assay in HEK293T cells; constant Rluc8-tagged donor cDNA (100 ng 3xHA 5-HT2AR-Rluc8 or 50 ng D2LR-Rluc8) and increasing mVenus-labeled acceptor cDNA (0-700 ng); coelenterazine-h 5 µM; read 48 h after transfection
D2LR-Rluc8 (human) = D2LR-Rluc8 (human) (UniProt P14416); test: as above

By UniProt entry, the sequences of proteins in these tests, tags left out.
UniProt P28223: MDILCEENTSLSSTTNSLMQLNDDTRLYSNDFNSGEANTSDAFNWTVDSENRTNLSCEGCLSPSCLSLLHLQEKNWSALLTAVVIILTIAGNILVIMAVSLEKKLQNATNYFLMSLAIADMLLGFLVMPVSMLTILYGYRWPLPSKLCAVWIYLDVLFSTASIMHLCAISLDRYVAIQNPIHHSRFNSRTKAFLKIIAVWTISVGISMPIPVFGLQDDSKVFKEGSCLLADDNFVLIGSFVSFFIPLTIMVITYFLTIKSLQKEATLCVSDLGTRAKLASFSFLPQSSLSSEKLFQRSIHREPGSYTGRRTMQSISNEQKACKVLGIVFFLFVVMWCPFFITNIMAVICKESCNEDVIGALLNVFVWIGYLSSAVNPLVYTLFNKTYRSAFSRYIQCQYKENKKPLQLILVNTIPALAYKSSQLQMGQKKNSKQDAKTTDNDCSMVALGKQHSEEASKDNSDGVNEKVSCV

With “neurotensin receptor 1 (NTS1R) (from UniProt P30989 1-418)” the binding [1] was “binds”.
With “D2LR-mVenus (from UniProt P14416 1-443) (receptor)” the binding [2] was “binds”.
In the case of “3xHA 5-HT2AR-mVenus (from UniProt P28223 1-471) (receptor)”, the binding (D2LR-Rluc8 (human)) is reported as “binds”.

Reference: PMC6841725
